# Data: patent EP0870499A1, “Oral use of (+)-0-Demethyltramadol as analgesic” (Grünenthal GmbH, priority 1997, dated 1998)
# Like-named read-outs stand apart in the source and are kept apart here.
# How the values were obtained:
# männliche NMRI-Mäuse [1] = conditions: mouse, in vivo
# männliche NMRI-Mäuse [2] = assay: Phenylquinone-induced writhing test in the mouse
# männliche NMRI-Mäuse [3] = conditions: mouse, in vivo; remark: listed apart in the source
# männliche NMRI-Mäuse [4] = assay: Tail-flick test (radiant heat) in the mouse
smiles,measurement,setting,value
"CN1CC[C@]23c4c5ccc(O)c4O[C@H]2[C@@H](O)C=C[C@H]3[C@H]1C5 [Morphin, reference compound]",orale Wirkverfügbarkeit,männliche NMRI-Mäuse [1],"0,06"
same,ED50,"männliche NMRI-Mäuse [2]; 10 min, read-out: ED50-Werte Writhing, Maus i.v.",0.33 mg/kg
same,ED50,"männliche NMRI-Mäuse [2]; 0.5 h, read-out: ED50-Werte Writhing, Maus p.o.",4.7 mg/kg
same,orale Wirkverfügbarkeit,männliche NMRI-Mäuse [3],"0,07"
same,ED50,"männliche NMRI-Mäuse [4]; iv, 20 min, read-out: ED50-Werte Tail-flick, Maus i.v.",1.05 mg/kg
same,ED50,"männliche NMRI-Mäuse [4]; po, 0.5 h, read-out: ED50-Werte Tail-flick, Maus p.o.",18.9 mg/kg
